From patent publication US20210330616A1, “AMELIORATING AGENT FOR OBESITY-RELATED METABOLIC DISEASE” (METABOLIC AND OBESE RESEARCH SCIENCE CORPORATION, priority 2018, published 2021)
For at least one compound, name, drawing or mass did not settle the structure.

By UniProt entry, the sequences of proteins in these tests, tags left out. Where a name states a change or a piece, a line headed by the entry shows the natural chain unless it says otherwise.
UniProt Q9BYK8: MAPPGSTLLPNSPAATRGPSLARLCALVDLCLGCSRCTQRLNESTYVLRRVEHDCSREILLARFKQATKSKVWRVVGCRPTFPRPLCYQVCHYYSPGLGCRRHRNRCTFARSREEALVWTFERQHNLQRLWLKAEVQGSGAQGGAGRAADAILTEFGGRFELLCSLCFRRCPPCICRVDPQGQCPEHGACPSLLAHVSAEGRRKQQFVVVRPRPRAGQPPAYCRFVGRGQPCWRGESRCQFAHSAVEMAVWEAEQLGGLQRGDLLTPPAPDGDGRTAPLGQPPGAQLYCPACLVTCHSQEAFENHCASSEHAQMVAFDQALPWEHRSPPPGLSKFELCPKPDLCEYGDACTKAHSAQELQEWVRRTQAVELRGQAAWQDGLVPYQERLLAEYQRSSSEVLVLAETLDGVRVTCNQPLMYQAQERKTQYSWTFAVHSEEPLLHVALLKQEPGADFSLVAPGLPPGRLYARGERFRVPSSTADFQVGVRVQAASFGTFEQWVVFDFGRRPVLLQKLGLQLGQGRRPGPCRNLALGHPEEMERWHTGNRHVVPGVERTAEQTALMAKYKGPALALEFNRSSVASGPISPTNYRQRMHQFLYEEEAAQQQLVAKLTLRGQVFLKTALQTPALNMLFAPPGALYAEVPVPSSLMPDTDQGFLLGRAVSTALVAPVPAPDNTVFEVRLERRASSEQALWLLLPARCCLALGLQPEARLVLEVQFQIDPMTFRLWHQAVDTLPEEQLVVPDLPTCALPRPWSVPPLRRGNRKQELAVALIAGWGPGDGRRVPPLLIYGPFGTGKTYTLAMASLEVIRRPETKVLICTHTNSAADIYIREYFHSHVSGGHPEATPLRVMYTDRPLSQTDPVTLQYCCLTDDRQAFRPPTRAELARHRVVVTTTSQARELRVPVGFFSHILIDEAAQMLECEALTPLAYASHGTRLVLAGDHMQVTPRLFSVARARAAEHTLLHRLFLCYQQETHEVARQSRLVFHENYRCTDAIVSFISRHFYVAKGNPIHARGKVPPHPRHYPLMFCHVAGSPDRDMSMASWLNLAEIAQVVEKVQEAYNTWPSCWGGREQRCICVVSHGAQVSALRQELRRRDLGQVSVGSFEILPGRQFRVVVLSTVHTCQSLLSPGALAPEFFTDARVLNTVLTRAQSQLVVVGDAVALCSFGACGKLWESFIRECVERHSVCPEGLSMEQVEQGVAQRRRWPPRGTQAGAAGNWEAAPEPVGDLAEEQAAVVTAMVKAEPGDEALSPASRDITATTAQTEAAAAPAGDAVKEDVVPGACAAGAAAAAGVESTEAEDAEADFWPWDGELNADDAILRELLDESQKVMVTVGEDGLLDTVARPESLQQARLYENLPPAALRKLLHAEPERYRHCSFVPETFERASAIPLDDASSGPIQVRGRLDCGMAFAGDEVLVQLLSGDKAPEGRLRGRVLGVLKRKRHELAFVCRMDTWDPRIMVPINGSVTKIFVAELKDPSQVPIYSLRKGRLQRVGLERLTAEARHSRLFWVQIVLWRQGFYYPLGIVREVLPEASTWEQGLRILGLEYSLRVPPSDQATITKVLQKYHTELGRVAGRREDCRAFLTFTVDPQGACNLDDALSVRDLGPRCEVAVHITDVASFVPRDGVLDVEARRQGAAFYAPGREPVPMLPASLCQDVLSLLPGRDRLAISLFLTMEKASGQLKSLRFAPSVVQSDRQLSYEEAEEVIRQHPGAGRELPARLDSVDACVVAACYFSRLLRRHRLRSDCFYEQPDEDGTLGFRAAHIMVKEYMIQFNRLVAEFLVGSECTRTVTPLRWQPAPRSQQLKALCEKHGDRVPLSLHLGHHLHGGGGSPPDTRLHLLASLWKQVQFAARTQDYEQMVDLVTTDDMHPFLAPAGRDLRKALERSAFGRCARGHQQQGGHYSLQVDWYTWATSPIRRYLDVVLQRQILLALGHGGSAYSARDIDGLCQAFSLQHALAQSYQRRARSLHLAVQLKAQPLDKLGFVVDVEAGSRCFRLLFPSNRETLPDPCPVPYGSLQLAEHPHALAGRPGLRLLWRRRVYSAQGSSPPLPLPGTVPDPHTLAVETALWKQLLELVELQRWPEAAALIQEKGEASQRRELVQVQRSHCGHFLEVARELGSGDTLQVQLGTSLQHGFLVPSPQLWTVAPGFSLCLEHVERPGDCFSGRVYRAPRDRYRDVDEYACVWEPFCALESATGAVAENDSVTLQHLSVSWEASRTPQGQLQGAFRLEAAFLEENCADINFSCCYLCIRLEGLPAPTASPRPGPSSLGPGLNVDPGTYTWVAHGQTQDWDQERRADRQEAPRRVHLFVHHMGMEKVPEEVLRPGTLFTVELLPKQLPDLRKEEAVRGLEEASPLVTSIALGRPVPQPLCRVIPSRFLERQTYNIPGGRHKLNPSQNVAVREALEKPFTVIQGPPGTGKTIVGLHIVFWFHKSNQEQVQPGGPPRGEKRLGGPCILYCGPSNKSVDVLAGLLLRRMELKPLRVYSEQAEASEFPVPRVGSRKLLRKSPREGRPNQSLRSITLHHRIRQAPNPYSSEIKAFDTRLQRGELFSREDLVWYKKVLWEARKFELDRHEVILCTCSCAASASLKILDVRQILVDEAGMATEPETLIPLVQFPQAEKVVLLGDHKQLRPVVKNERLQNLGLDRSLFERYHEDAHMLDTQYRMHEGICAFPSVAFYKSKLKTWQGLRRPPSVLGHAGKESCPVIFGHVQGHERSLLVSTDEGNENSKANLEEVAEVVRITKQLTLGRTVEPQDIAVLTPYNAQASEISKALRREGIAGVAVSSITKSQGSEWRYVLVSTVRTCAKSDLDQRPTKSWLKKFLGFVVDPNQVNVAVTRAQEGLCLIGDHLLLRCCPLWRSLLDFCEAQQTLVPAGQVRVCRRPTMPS

Legend:
[1] = parameters: key to Body weight / Insulin resistance / Hyperglycemia / Hypertension / Blood LDLc / Blood HDLc / Fatty liver: ↓: lowering or mitigating action; ↑: increasing action; →: no change; conditions: cited from earlier work
Helz2 = molecular target: T1, Helz2 (Homo sapiens, UniProt Q9BYK8); assay: High-throughput screening through surface plasmon resonance for low-molecular-weight compounds that bind to Helz2; format: binding
T1 construct: 3xFLAG (N); made in house; host or cells: HEK293 cells
Source text: 1. High-Throughput Screening for Low-Molecular-Weight Compounds that Bind to Helz2
HEK293 cells were allowed to express Helz2 by using a Helz2 expression vector (p3×FLAG-CMV10-pDIP2), and Helz2 protein was purified.

In the case of CCc1ccc(CCOc2ccc(CC3SC(=O)NC3=O)cc2)nc1 (stereo not drawn) [Pioglitazone], the “Blood HDLc” value ([1]; Table 1, comparator drugs) is listed as “↑”, the “Blood LDLc” value ([1]; Table 1, comparator drugs) is listed as “→” and the Body weight ([1]; Table 1, comparator drugs) is listed as “↑”. The Fatty liver ([1]; Table 1, comparator drugs) was “↓”, the Hyperglycemia ([1]; Table 1, comparator drugs) was “↓” and the Hypertension ([1]; Table 1, comparator drugs) was “↓”. For the same molecule, the Insulin resistance ([1]; Table 1, comparator drugs) was “↓”, the “action on insulin resistance” value ([1]; comparison, comparator drugs) was “ameliorate insulin resistance” and the anti-fatty liver action ([1]; comparison, comparator drugs) was “exhibits anti-fatty liver action in clinical situations”. The anti-obesity action ([1]; comparison, comparator drugs) was “causes body weight gain rather than anti-obesity action”, the hyperglycemia-mitigating action ([1]; comparison, comparator drugs) was “exhibits hyperglycemia-mitigating action” and the “binding to Helz2 (in words)” value (Helz2) was “dose not bind to Helz2”.
